# Reference: PubChem BioAssay AID1259254 (NCATS, 2017)
# Test: 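Gene knock-downs that lead to re-replication, shown by excess G2 DNA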 (primary screen)
# System: human HCT116 colorectal cancer cells
# Reagents: single siRNA against human genes
# Timing: 3 days
# Measurement: 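Nuclei stained with Hoechst and imaged; cell-cycle phase assigned by DNA content; G2 share scaled per plate, non-targeting siRNA 0%, GMNN siRNA 100%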
# Scale: G2 robust z-score: higher = more G2 cells, more excess DNA replication
# Rule for the call: 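Active siRNAs have a G2 robust z of 5 or more median absolute deviations over the median, which in these data means about 38% or higher of GMNN control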
# Here is a random part of about 59,000 reagents tested. About 1,550 of all reagents (2.6%) were called active. 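G2 share is only a proxy for re-replication; each gene was hit by three separate siRNAs, and active genes were retested.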 Entries without a mark were called inactive. Reagents against one gene are numbered here. Further read-outs or replicates are left out here. Not given: the amount of reagent.
gene knocked down,reagent,G2 robust z-score
C1orf216,1,-0.33
C1orf216,2,2.62
C1orf216,3,0.143
PHF10,1,3.67
PHF10,2,2.9
PHF10,3,-0.759
XXYLT1,1,-0.941
XXYLT1,2,-0.837
XXYLT1,3,-0.0849
BET1L,1,-0.953
BET1L,2,-0.0422
BET1L,3,-0.916
GRIN2C,1,-0.643
GRIN2C,2,2.61
GRIN2C,3,-0.115
LOC730668,1,1.11
LOC730668,2,-0.0809
LOC730668,3,-0.585
PRB4,1,2.06
PRB4,2,0.0327
PRB4,3,0.835
ACTL6A,1,8.87 (active)
ACTL6A,2,1.07
ACTL6A,3,0.256
PLEKHA1,1,0.192
PLEKHA1,2,1.35
PLEKHA1,3,1.04
B3GALT5-AS1,1,-1.12
B3GALT5-AS1,2,0.369
B3GALT5-AS1,3,-0.753
